Source: PubChem BioAssay AID743121 (NCATS, 2013)
Here is an unselected part of about 26,000 reagents. Of all reagents, 167 (0.63%) got an active call. 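Calls are per gene from RSA p-values that are not deposited; an individual active-marked siRNA can sensitise only weakly.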 Reagents against one gene are numbered here. Not all columns of the deposit are shown.

- Aim: 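Genes whose silencing strengthens cell killing by camptothecin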 (primary screen)
- System: MDA-MB-231 cells, a human breast cancer line
- Reagent: single siRNA against human genes, 20 nM siRNA (0.8 pmol per well)
- Duration: 120 h (drug added 48 h after transfection, read 72 h later)
- Treatment: camptothecin 20 nM (about EC30) for 72 h; vehicle 0.1% DMSO in parallel plates
- Detection: 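Cell viability by ATP luminescence (CellTiter-Glo) as % of non-targeting siRNA wells, and the log2 ratio of viability without drug over viability with camptothecin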
- Direction: log2 vehicle/camptothecin viability: higher = stronger sensitisation to camptothecin
- Call rule: 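Each gene scored by redundant siRNA activity (RSA) over its individual siRNA ratios; a gene is called active at p < 0.001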

| gene | reagent | log2 vehicle/camptothecin viability | Call |
| --- | --- | --- | --- |
| SPN | 1 | -0.209 | inactive |
| SPN | 2 | 0.384 | inactive |
| SPN | 3 | -0.239 | inactive |
| SPN | 4 | -0.0416 | inactive |
| GNG11 | 1 | -0.309 | inactive |
| GNG11 | 2 | 0.00552 | inactive |
| GNG11 | 3 | 0.0791 | inactive |
| GNG11 | 4 | -0.151 | inactive |
| MCC | 1 | -0.429 | inactive |
| MCC | 2 | -0.366 | inactive |
| MCC | 3 | -0.0129 | inactive |
| MCC | 4 | -0.0632 | inactive |
| BAK1 | 1 | -0.0417 | inactive |
| BAK1 | 2 | -0.266 | inactive |
| BAK1 | 3 | -0.247 | inactive |
| BAK1 | 4 | -0.217 | inactive |
| ALDH1L2 | 1 | -0.372 | inactive |
| ALDH1L2 | 2 | -0.115 | inactive |
| ALDH1L2 | 3 | -0.172 | inactive |
| ALDH1L2 | 4 | -0.274 | inactive |
| MXD3 | 1 | 0.0122 | inactive |
| MXD3 | 2 | -0.669 | inactive |
| MXD3 | 3 | -0.0582 | inactive |
| MXD3 | 4 | 0.691 | inactive |
| PTGER3 | 1 | -0.0181 | inactive |
| PTGER3 | 2 | 0.755 | inactive |
| PTGER3 | 3 | -0.408 | inactive |
| PTGER3 | 4 | 0.034 | inactive |
| RASEF | 1 | 0.131 | inactive |
| RASEF | 2 | -0.0894 | inactive |
| RASEF | 3 | 0.225 | inactive |
| RASEF | 4 | 0.0008 | inactive |
| LRP6 | 1 | -0.212 | inactive |
| LRP6 | 2 | -0.4 | inactive |
| LRP6 | 3 | -0.265 | inactive |
| LRP6 | 4 | -0.0216 | inactive |
| TFAP2A | 1 | 0.513 | inactive |
| TFAP2A | 2 | -0.122 | inactive |
| TFAP2A | 3 | 0.0955 | inactive |
| NFATC2 | 1 | -0.0957 | inactive |
| NFATC2 | 2 | -0.269 | inactive |
| NFATC2 | 3 | 0.259 | inactive |
| NFATC2 | 4 | 0.111 | inactive |
| REEP1 | 1 | -0.114 | inactive |
| REEP1 | 2 | -0.0748 | inactive |
| REEP1 | 3 | -0.0376 | inactive |
| REEP1 | 4 | -0.032 | inactive |
| CAPN8 | 1 | -0.117 | inactive |
| CAPN8 | 2 | 0.73 | inactive |
| CAPN8 | 3 | 0.0348 | inactive |
| CAPN8 | 4 | -0.0365 | inactive |
| CAPN8 | 5 | 0.357 | inactive |
| CAPN8 | 6 | 0.0838 | inactive |
| OR51E1 | 1 | -0.315 | inactive |
| OR51E1 | 2 | 0.0796 | inactive |
| OR51E1 | 3 | -0.0934 | inactive |
| OR51E1 | 4 | -0.634 | inactive |
| PTPRH | 1 | 0.223 | inactive |
| PTPRH | 2 | -0.426 | inactive |
| PTPRH | 3 | -0.174 | inactive |
| PTPRH | 4 | -0.479 | inactive |
| KIF25 | 1 | -0.0568 | inactive |
| KIF25 | 2 | -0.125 | inactive |
| KIF25 | 3 | 0.698 | inactive |
| LINC00312 | 1 | -0.221 | inactive |
| LINC00312 | 2 | -0.163 | inactive |
| LINC00312 | 3 | -0.345 | inactive |
| GAS2 | 1 | -0.12 | inactive |
| GAS2 | 2 | -0.153 | inactive |
| GAS2 | 3 | -0.279 | inactive |
| GAS2 | 4 | -0.0236 | inactive |

10 successive entries already listed, quoted:
| gene | reagent | log2 vehicle/camptothecin viability | Call |
| --- | --- | --- | --- |
| NFATC2 | 2 | -0.269 | inactive |
| NFATC2 | 3 | 0.259 | inactive |
| NFATC2 | 4 | 0.111 | inactive |
| REEP1 | 1 | -0.114 | inactive |
| REEP1 | 2 | -0.0748 | inactive |
| REEP1 | 3 | -0.0376 | inactive |
| REEP1 | 4 | -0.032 | inactive |
| CAPN8 | 1 | -0.117 | inactive |
| CAPN8 | 2 | 0.73 | inactive |
| CAPN8 | 3 | 0.0348 | inactive |
